Data published in PubChem BioAssay AID1487 (National Center for Advancing Translational Sciences (NCATS), 2009).
Some of the results follow. Shown are side measurements of this screen, not its main read-out; they come without a call. Most of these compounds were active or inconclusive in the main read-out, so they are no random draw. Words in brackets tell the shape of the fitted curve; partial curves, single points and poor fits give uncertain potencies.

Assay: qHTS Assay for Modulators of Lamin A Splicing
Conditions: HeLa LMNA splicing GFP/RFP minigene ratio, 48 h
Procedure, shortened: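 S3 HeLa cells stably expressing lamin A-EGFP splicing minigene plus DsRed2, 600 cells/well, 48 h compound exposure at 37C. Laser-scanning cytometry; analysed as GFP (500-530 nm)/RFP (575-640 nm) total intensity ratio; 0.5% DMSO vehicle.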

[1] = measured here: GFP splicing reporter channel
[2] = measured here: RFP viability control channel

| SMILES | AC50 [1] | AC50 [2] |
| --- | --- | --- |
| COc1ccc2[nH]c(=O)c(CN(Cc3ccco3)C(=O)c3ccccc3)cc2c1 | 35.5 µM [rising, single point] | – |
| COc1ccc(C)cc1NC(=O)C(NCC1CCCO1)c1ccccc1 (stereo not given) | 0.891 µM [rising, partial curve, poor fit] | – |
| O=C(NC1=NCCS1)c1cc(-c2cccc(Br)c2)nc2ccccc12 | 22.4 µM [rising, single point] | 20 µM [rising, single point] |
| Cc1cc(C)n(CC(C)NC(=O)c2cc(COc3c(F)cccc3F)on2)n1 (stereo not given) | 0.0562 µM [falling, full curve, poor fit] | 0.316 µM [falling, full curve, poor fit] |
| OC(c1ccc(OCc2ccccc2)cc1)c1nnc(-c2ccccc2)o1 (stereo not given) | – | 2.82 µM [rising, single point] |
| COc1ccc(CCC(=O)N2CCc3ccccc32)cc1 | 10 µM [rising, partial curve, poor fit] | – |
| S=C(Nc1ccc(Cl)cc1)N1CCN(Cc2ccccc2)CC1 | 8.91 µM [falling, partial curve, poor fit] | – |
| CSc1nc(C)c(Cc2c(F)cccc2Cl)c(=O)[nH]1 | – | 0.0355 µM [falling, full curve, poor fit] |
| CC(C)Nc1nc(C#N)nc(NC(C)C)n1 | 31.6 µM [rising, single point] | 35.5 µM [rising, single point] |
| COc1ccc(C(=O)NCc2nnc(SCC(=O)N3CCCCC3)o2)cc1 | 10 µM [falling, partial curve] | 11.2 µM [falling, partial curve] |
| Cc1ccc(-c2nc(N=Nc3ccc(O)cc3)n[nH]2)cc1 | 35.5 µM [falling, single point] | 2.82 µM [rising, single point] |
| Cn1cc(-c2nc3cnc(Oc4ccccc4)nc3n(C)c2=O)c2ccccc21 | 12.6 µM [falling, single point] | 15.8 µM [falling, single point] |
| O=C(Cc1ccccc1)c1c[nH]c(C(=O)NC2CCCC2)c1 | 6.31 µM [falling, partial curve] | 39.8 µM [falling, partial curve, poor fit] |
| CSc1ccc(CCNC(=O)CCn2c(=O)c3cccn3c3ccc(F)cc32)cc1 | 25.1 µM [rising, partial curve] | – |
| Cc1ccc(S(=O)(=O)Nc2nc(N)n(-c3ccccc3)n2)cc1 | – | 0.158 µM [falling, full curve, poor fit] |
| CC(CN(C)C)C(C)(O)Cc1ccc(Cl)cc1 (stereo not given) | 0.00794 µM [falling, full curve, poor fit] | 35.5 µM [falling, single point] |
| c1ccc2c(c1)CCCC2NC1=NCCC1 (stereo not given) | 15.8 µM [rising, partial curve] | 11.2 µM [rising, partial curve, poor fit] |
| Cc1c(C(=O)O)sc(=S)n1CCOc1ccccc1 | 17.8 µM [rising, single point] | 22.4 µM [rising, single point] |
| Cc1noc(C)c1C(=O)N1CCCC(C(=O)c2ccc(Cl)cc2)C1 (stereo not given) | – | 0.398 µM [falling, full curve, poor fit] |
| O=C(Nc1cccc(Cl)c1Cl)C1CC(=O)N(c2ccc(Br)cc2)C1 (stereo not given) | 3.55 µM [rising, full curve] | 3.55 µM [rising, full curve] |
| O=C(CN1CCC(C(=O)c2ccc3c(c2)OCCO3)CC1)NC1CCCC1 | 17.8 µM [rising, partial curve] | 22.4 µM [rising, single point] |
| Cc1ccccc1Nc1nn2c(=O)c3ccccc3nc2s1 | – | 15.8 µM [rising, single point] |
| CCOC(=O)N1CCN(c2ccc([N+](=O)[O-])cc2F)CC1C (stereo not given) | 5.01 µM [rising, single point] | 15.8 µM [rising, single point] |
| Cc1cc(C)cc(NC(=S)Nc2ccc(Cl)c(Cl)c2)c1 | – | 0.0178 µM [rising, full curve, poor fit] |
| O=C(/C=C/c1cccc(C(F)(F)F)c1)Nc1cccc(C(F)(F)F)c1 | – | 22.4 µM [rising, single point] |
| COc1ccc2[nH]cc(CCNc3cc(-c4ccccc4Cl)ncn3)c2c1 | 12.6 µM [falling, single point] | 35.5 µM [falling, single point] |
| Clc1cccc(-c2nc(NCCN3CCOCC3)c3ccccc3n2)c1 | – | 12.6 µM [rising, single point] |
| CC(C)c1ccc(OCC(O)CN2CCN(c3ccccc3)CC2)cc1 (stereo not given) | – | 35.5 µM [rising, single point] |

As a working copy, four of the compounds above:

| SMILES | AC50 [1] | AC50 [2] |
| --- | --- | --- |
| O=C(/C=C/c1cccc(C(F)(F)F)c1)Nc1cccc(C(F)(F)F)c1 | – | 22.4 µM [rising, single point] |
| COc1ccc2[nH]cc(CCNc3cc(-c4ccccc4Cl)ncn3)c2c1 | 12.6 µM [falling, single point] | 35.5 µM [falling, single point] |
| Clc1cccc(-c2nc(NCCN3CCOCC3)c3ccccc3n2)c1 | – | 12.6 µM [rising, single point] |
| CC(C)c1ccc(OCC(O)CN2CCN(c3ccccc3)CC2)cc1 (stereo not given) | – | 35.5 µM [rising, single point] |

(list continues)

| SMILES | AC50 [1] | AC50 [2] |
| --- | --- | --- |
| CC(C)(C)c1ccc(CN(Cc2ccco2)Cc2nnnn2C2CCCC2)cc1 | – | 35.5 µM [falling, single point] |
| Cc1noc(C)c1COc1ccc(CC(=O)NC2CCCCCC2)cc1 | 0.02 µM [falling, full curve, poor fit] | 11.2 µM [falling, partial curve, poor fit] |
| Cc1nc(NCC2CCCO2)c2nnn(Cc3c(F)cccc3Cl)c2n1 (stereo not given) | – | 35.5 µM [falling, single point] |
| CC1(C)CC(=O)c2cc(OCC(=O)NCCCN3CCN(c4ccc(F)cc4)CC3)ccc2O1 | 12.6 µM [rising, partial curve, poor fit] | 17.8 µM [rising, partial curve] |
| COc1ccc(C(=O)NC(=S)NNC(=O)Cc2cccs2)cc1 | – | 35.5 µM [rising, single point] |
| CC(=O)NCCn1c(SCC#N)nc2ccccc2c1=O | – | 0.355 µM [falling, full curve, poor fit] |
| COc1ccc(C2CC(C)(c3ccc(OC)cc3OC)Nc3ccccc3N2)c(OC)c1 (stereo not given) | 2 µM [rising, partial curve] | – |
| S=C(NCc1ccccc1)NCc1cccc(CNC(=S)NCc2ccccc2)c1 | 15.8 µM [rising, single point] | 35.5 µM [rising, single point] |
| CCOc1ccc(OCC)c(NC(=O)CN2CCN(c3cccc(C)c3)CC2)c1 | 12.6 µM [rising, single point] | 12.6 µM [rising, partial curve] |
| Cc1nc2c(C(=O)N3CCN(c4ccccn4)CC3)cnn2c(C)c1Cc1cccc(Cl)c1 | 35.5 µM [rising, single point] | 35.5 µM [rising, single point] |
| CCN(CC(=O)Nc1ccccc1OC)CC(=O)Nc1ccccc1C(F)(F)F | – | 11.2 µM [rising, partial curve, poor fit] |
| Cc1cc(=O)[nH]c(N/N=C/c2ccccn2)n1 | – | 3.98 µM [rising, full curve] |
| CCOC(=O)c1ccccc1NC(=O)c1n[nH]c(=O)c2ccccc12 | 14.1 µM [rising, single point] | 12.6 µM [rising, partial curve] |
| C/C(=N\NC(=S)NCc1ccccc1)c1ccccc1 | 14.1 µM [rising, single point] | 31.6 µM [rising, single point] |
| O=c1c(-c2ccc(Cl)cc2)nc2cnc(N3CCNCC3)nc2n1Cc1cccs1 | 17.8 µM [falling, partial curve] | 12.6 µM [falling, partial curve] |
| COC(=O)c1ccc(Cn2cnc3nc4c(cc3c2=O)CCCC4)cc1 | 0.891 µM [rising, full curve, poor fit] | 0.708 µM [rising, full curve] |
| CC(=O)Nc1ccc(NC(=O)Cc2ccc(S(=O)(=O)N3CCCCC3)s2)cc1 | – | 35.5 µM [rising, single point] |
| Cc1ccc(N(CC(=O)Nc2ccccc2-c2ccccc2)S(=O)(=O)c2ccccc2)c(C)c1 | – | 22.4 µM [rising, partial curve] |
| CC1CC(C)CN(CCOCCSc2ccccc2)C1 (stereo not given) | 0.251 µM [falling, full curve, poor fit] | – |
| C=CCn1c(SCC(=O)Nc2cc(C)c(Cl)cc2OC)nnc1-c1ccco1 | – | 12.6 µM [rising, single point] |
| COc1ccccc1Oc1ccc(-c2cnc3ccccc3n2)cc1[N+](=O)[O-] | – | 0.0447 µM [falling, full curve] |
| COc1ccc(/C=N/NC(=O)c2cccc(Br)c2)cc1CSc1ccccn1 | – | 11.2 µM [rising, single point] |
| Cc1ccc(C)c(CN2C(=O)C3(OCCCO3)c3ccccc32)c1 | 35.5 µM [rising, single point] | – |
| CCCc1[nH]nc2c1C(/C(C)=C/c1ccccc1)C(C#N)=C(N)O2 (stereo not given) | 10 µM [rising, partial curve] | 12.6 µM [rising, single point] |
| CCOC(=O)N1CCN(C(=O)CN(Cc2ccc(Cl)cc2)S(=O)(=O)c2ccccc2)CC1 | – | 20 µM [rising, single point] |
| CN(C)S(=O)(=O)c1cccc(NC(=O)c2ccc(OC(F)(F)F)cc2)c1 | – | 12.6 µM [rising, partial curve] |
| CC1CN(c2nc3c(c(=O)n(Cc4ccc(Cl)cc4)c(=O)n3C)n2C)CC(C)O1 (stereo not given) | 14.1 µM [rising, single point] | 22.4 µM [rising, single point] |
